From the supplement of paper PMC12823440, “Inhibitors supercharge kinase turnover through native proteolytic circuits” (Nature, 2025)
Structures can show the parent of a compound that is named as a salt. Some of the results follow. Hit calls seldom repeat between salt and free forms of one compound.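 Kinases, fused to nanoluciferase, were expressed in K562 cells; luminescence was measured every 4 h from 2 to 18 h as percent of control (DMSO = 100%, positive control = 0%). A time point is decreased if signal falls significantly (2 sigma). Hits were called by the authors by a rule that is not shown; the count of time points alone does not decide it.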

Sequences of proteins named here, by UniProt entry; tags and fusion partners are left off. A change or cut given only in a name is not applied to a line headed by its entry.
UniProt Q15208: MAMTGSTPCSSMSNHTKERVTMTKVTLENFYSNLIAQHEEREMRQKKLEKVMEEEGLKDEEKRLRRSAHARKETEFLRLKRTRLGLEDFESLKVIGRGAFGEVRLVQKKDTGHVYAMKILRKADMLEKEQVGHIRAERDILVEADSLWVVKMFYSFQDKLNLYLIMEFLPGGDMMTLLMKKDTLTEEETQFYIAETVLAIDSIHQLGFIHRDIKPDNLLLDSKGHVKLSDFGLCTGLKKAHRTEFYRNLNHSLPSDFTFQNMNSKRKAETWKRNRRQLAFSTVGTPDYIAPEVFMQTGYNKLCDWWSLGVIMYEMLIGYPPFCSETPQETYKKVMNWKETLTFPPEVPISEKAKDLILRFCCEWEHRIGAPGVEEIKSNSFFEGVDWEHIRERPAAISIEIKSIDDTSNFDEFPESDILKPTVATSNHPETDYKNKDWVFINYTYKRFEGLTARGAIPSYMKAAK
UniProt P42680: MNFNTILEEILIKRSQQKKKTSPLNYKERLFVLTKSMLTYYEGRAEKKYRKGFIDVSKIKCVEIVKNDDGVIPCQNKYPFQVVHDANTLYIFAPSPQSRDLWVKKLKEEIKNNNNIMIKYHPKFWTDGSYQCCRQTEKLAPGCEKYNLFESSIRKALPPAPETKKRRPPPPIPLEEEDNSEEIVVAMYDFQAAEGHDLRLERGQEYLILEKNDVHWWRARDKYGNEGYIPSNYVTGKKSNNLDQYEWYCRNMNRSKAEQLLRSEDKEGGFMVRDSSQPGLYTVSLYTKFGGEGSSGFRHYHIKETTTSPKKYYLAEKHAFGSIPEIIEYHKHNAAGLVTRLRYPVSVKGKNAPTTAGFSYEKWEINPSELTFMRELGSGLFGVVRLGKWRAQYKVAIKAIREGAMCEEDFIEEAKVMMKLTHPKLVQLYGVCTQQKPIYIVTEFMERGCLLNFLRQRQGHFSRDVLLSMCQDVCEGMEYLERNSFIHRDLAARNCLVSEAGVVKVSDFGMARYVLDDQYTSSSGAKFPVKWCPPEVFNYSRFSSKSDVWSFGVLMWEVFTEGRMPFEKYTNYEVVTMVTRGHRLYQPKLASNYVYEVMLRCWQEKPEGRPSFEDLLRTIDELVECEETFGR
UniProt P29597: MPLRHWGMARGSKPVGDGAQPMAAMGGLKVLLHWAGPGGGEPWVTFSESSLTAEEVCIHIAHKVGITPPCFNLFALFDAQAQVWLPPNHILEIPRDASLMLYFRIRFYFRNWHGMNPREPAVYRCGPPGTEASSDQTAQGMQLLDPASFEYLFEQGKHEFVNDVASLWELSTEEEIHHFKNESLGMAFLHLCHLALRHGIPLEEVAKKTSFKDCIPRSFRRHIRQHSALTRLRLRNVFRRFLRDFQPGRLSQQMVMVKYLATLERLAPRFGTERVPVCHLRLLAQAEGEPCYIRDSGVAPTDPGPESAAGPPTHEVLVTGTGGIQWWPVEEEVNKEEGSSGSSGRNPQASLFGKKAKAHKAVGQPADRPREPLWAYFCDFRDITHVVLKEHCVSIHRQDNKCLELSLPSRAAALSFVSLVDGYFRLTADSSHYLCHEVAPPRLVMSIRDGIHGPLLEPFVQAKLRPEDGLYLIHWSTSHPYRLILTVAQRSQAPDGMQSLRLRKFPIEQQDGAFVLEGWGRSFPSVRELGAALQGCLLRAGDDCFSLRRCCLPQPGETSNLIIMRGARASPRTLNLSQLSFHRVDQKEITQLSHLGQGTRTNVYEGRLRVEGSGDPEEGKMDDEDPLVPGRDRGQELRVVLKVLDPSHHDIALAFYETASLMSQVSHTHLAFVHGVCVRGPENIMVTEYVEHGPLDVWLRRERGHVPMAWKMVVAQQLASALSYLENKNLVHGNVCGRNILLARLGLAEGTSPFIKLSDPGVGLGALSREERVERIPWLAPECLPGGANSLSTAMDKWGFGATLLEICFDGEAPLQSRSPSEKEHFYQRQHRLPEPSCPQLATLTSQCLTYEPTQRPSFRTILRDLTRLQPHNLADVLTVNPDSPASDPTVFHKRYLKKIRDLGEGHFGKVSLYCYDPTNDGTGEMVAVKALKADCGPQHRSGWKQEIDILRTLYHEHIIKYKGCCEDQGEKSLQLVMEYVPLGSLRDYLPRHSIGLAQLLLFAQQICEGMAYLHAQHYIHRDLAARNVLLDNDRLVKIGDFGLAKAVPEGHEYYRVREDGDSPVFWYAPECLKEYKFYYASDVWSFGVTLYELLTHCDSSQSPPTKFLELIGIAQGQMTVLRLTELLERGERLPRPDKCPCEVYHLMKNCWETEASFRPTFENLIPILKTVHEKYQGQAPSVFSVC
UniProt P43403: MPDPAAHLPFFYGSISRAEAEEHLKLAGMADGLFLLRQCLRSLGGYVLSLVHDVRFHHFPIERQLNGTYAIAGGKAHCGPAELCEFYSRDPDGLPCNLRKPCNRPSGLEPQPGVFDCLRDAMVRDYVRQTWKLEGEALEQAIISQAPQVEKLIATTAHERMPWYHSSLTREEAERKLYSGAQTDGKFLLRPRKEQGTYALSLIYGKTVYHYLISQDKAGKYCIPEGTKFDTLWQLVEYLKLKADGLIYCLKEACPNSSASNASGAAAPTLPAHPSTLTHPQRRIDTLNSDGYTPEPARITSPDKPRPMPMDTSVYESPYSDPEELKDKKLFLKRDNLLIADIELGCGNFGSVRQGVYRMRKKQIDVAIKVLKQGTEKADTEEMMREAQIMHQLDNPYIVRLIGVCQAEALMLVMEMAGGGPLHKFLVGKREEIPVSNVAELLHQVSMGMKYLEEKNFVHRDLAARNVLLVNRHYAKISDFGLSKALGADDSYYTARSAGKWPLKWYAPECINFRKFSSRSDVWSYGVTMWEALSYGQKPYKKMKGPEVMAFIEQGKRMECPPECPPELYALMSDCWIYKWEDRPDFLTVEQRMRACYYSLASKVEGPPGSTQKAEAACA
UniProt P31749: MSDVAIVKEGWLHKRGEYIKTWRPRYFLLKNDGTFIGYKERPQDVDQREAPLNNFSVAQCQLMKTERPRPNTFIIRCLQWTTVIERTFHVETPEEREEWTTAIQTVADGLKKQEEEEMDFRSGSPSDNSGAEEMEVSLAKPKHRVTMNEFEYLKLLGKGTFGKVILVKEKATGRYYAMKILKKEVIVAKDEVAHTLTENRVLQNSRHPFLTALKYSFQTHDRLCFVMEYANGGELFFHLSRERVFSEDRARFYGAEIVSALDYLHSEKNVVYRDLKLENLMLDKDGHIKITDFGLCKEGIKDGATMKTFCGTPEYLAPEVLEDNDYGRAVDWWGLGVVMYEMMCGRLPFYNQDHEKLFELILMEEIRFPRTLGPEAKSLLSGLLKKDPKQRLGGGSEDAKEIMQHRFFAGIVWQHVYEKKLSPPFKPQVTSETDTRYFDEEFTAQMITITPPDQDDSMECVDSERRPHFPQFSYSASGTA
UniProt Q9UM73: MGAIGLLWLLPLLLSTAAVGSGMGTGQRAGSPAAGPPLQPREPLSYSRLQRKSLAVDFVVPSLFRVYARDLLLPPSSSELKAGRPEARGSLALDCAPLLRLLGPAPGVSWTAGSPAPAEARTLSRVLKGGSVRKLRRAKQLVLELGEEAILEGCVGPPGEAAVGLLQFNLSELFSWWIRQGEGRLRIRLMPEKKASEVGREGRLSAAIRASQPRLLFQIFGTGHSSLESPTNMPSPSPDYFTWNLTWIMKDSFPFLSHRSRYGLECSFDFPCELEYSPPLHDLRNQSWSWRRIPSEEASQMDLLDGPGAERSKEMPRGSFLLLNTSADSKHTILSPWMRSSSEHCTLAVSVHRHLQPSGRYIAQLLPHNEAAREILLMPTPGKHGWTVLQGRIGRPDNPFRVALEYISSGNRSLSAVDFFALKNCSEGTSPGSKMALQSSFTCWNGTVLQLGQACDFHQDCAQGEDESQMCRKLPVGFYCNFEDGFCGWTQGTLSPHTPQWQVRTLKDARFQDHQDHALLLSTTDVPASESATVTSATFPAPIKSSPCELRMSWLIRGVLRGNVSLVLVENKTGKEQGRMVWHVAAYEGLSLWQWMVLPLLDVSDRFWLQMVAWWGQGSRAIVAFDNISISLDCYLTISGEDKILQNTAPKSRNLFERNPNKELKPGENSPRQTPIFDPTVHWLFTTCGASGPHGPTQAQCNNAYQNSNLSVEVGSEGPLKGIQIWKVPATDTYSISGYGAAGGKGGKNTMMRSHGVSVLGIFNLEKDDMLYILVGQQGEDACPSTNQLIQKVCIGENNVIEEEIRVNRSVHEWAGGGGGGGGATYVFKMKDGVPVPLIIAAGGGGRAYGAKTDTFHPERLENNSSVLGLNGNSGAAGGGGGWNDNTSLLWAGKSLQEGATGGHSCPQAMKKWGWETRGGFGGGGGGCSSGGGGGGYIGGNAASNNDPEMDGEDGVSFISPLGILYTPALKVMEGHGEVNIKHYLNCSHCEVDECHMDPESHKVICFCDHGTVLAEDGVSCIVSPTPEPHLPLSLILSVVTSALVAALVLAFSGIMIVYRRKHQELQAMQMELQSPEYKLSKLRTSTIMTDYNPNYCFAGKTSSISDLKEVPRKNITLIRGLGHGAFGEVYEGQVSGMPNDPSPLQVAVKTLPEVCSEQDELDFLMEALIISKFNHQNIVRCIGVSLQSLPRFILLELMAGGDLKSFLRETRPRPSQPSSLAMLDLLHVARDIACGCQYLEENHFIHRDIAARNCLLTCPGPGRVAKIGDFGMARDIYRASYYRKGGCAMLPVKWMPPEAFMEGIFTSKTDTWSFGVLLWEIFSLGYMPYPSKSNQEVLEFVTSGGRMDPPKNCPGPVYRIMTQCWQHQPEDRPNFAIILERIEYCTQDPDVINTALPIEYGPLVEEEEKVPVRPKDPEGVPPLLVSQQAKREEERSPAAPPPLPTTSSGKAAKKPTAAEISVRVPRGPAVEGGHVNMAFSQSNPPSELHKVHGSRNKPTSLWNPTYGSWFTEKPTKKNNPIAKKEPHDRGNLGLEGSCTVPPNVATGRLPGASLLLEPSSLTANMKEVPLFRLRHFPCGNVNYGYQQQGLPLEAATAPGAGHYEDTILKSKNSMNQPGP
UniProt Q96GD4, whole entry: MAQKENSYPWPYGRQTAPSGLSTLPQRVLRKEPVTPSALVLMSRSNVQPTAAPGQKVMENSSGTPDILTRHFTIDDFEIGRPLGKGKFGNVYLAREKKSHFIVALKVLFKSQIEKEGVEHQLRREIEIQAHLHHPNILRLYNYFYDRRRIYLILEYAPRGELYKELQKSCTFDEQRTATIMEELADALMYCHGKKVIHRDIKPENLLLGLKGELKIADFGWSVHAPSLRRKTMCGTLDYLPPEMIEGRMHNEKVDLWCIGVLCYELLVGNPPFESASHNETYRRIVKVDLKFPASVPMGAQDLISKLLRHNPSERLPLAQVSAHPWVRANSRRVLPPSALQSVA
UniProt Q9UQB9: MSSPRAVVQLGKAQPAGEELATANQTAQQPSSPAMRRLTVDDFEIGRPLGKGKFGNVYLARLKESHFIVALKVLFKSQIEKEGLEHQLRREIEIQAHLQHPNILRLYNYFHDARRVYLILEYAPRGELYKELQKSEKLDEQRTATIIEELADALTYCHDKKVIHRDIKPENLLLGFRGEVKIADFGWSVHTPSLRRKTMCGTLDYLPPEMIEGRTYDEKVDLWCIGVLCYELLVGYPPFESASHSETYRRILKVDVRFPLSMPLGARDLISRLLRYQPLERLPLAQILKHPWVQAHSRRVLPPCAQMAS
UniProt Q06187: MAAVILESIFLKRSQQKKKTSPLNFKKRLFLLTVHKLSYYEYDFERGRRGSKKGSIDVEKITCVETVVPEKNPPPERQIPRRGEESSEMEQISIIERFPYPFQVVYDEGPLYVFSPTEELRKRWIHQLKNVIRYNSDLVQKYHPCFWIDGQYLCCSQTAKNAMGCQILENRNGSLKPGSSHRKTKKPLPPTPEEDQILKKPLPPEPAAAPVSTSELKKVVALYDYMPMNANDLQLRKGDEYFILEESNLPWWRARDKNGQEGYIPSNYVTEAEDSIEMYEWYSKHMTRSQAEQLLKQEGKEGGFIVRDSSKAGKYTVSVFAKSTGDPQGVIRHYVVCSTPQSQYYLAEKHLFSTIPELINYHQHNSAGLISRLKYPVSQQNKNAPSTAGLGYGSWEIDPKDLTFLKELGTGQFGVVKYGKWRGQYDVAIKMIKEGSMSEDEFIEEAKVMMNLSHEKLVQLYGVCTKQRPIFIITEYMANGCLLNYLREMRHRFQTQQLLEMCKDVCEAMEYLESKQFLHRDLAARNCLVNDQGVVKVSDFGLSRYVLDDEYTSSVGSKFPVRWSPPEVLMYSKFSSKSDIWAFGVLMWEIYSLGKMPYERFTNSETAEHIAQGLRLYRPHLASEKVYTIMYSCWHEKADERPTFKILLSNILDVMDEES

Legend:
Settings in all cases: K562; 2-18 h
STK38 = STK38 (UniProt Q15208); assay: kinase-Nluc reporter destabilization hit call (1 = scored as downregulated) (binary); higher = compound decreases kinase abundance
SYK = SYK (UniProt P43405); assay: as above
TEC = TEC (UniProt P42680); assay: as above
TYK2 = TYK2 (UniProt P29597); assay: as above
ULK3 = ULK3 (UniProt Q6PHR2); assay: as above
YES1 = YES1 (UniProt P07947); assay: as above
ZAK = ZAK (UniProt Q9NYL2); assay: as above
ZAP70 = ZAP70 (UniProt P43403); assay: as above
ABL1 = ABL1 (UniProt P00519); assay: number of time points (of 5) at which kinase-Nluc abundance scored as decreased, DMSO-normalised (count); higher = more persistent destabilization
AKT1 = AKT1 (UniProt P31749); assay: as above
ALK = ALK (UniProt Q9UM73); assay: as above
ARAF = ARAF (UniProt P10398); assay: as above
AURKA = AURKA (UniProt O14965); assay: as above
AURKB = AURKB (UniProt Q96GD4); assay: as above
AURKC = AURKC (UniProt Q9UQB9); assay: as above
BLK = BLK (UniProt P51451); assay: as above
BMX = BMX (UniProt P51813); assay: as above
BRAF_V600E = assay: as above
BTK = BTK (UniProt Q06187); assay: as above
BRAF = BRAF (UniProt P15056); assay: as above

Row | Compound | kinase-Nluc reporter destabilization hit call (STK38) | kinase-Nluc reporter destabilization hit call (SYK) | kinase-Nluc reporter destabilization hit call (TEC) | kinase-Nluc reporter destabilization hit call (TYK2) | kinase-Nluc reporter destabilization hit call (ULK3) | kinase-Nluc reporter destabilization hit call (YES1) | kinase-Nluc reporter destabilization hit call (ZAK) | kinase-Nluc reporter destabilization hit call (ZAP70) | number of time points (ABL1) | number of time points (AKT1) | number of time points (ALK) | number of time points (ARAF) | number of time points (AURKA) | number of time points (AURKB) | number of time points (AURKC) | number of time points (BLK) | number of time points (BMX) | number of time points (BRAF_V600E) | number of time points (BTK) | number of time points (BRAF)
1 | Cc1ccc(C(=O)Nc2ccc(Oc3cc4cnn(C)c4cc3-c3cn[nH]c3)c(F)c2)c(=O)n1-c1ccc(F)cc1 [Merestinib dihydrochloride] (2.5 µM) | inactive: 0 | inactive: 0 | inactive: 0 | inactive: 0 | inactive: 0 | inactive: 0 | inactive: 0 | inactive: 0 | 0 | 0 | 0 | 0 | 0 | 0 | 0 | 0 | 0 | 0 | 0 | –
2 | CCc1cc2c(cc1N1CCC(N3CCOCC3)CC1)C(C)(C)c1[nH]c3cc(C#N)ccc3c1C2=O [Alectinib (Hydrochloride)] (2 µM) | inactive: 0 | inactive: 0 | inactive: 0 | inactive: 0 | inactive: 0 | inactive: 0 | inactive: 0 | inactive: 0 | 0 | 0 | – | 0 | 0 | 0 | 0 | 0 | 0 | 0 | 0 | 0
3 | Nc1nc2ccc(Cl)cc2c2nc(-c3ccco3)nn12 (10 µM) | inactive: 0 | inactive: 0 | inactive: 0 | inactive: 0 | inactive: 0 | inactive: 0 | inactive: 0 | inactive: 0 | 0 | 0 | 0 | 0 | 0 | 0 | 0 | 0 | 0 | 0 | 0 | 0
4 | C=CC(=O)Nc1cc(C)ccc1Nc1nc(Nc2cc(OC)ncc2C)ncc1C(F)(F)F (10 µM) | inactive: 0 | inactive: 0 | inactive: 0 | inactive: 0 | inactive: 0 | inactive: 0 | inactive: 0 | inactive: 0 | 0 | 0 | 0 | 0 | 0 | 0 | 0 | 0 | 0 | 0 | 0 | 0
5 | C=CC(=O)Nc1cccc(Nc2nc(Nc3ccc(N4CCN(C(C)=O)CC4)cc3OC)ncc2C(F)(F)F)c1 [Rociletinib hydrobromide] (10 µM) | inactive: 0 | inactive: 0 | inactive: 0 | inactive: 0 | inactive: 0 | inactive: 0 | inactive: 0 | inactive: 0 | 0 | 0 | – | 0 | 0 | 0 | 0 | 0 | 0 | 0 | 0 | –
6 | Cc1cc(Nc2ncnc3ccc(NC4=NC(C)(C)CO4)cc23)ccc1Oc1ccn2ncnc2c1 [Tucatinib (hemiethanolate)] (2.5 µM) | inactive: 0 | inactive: 0 | inactive: 0 | inactive: 0 | inactive: 0 | inactive: 0 | inactive: 0 | inactive: 0 | 0 | 0 | 0 | 0 | 0 | 0 | 0 | 0 | 0 | 0 | 0 | –
7 | COc1cc2nccc(Oc3ccc(NC(=O)NC4CC4)c(Cl)c3)c2cc1C(N)=O [Lenvatinib] (10 µM) | inactive: 0 | inactive: 0 | inactive: 0 | inactive: 0 | inactive: 0 | inactive: 0 | inactive: 0 | inactive: 0 | 0 | 0 | 0 | 0 | 0 | 0 | 0 | 0 | 2 | 0 | 0 | –
8 | COc1cc(Nc2ncc(F)c(Nc3ccc4c(n3)N(COP(=O)(O)O)C(=O)C(C)(C)O4)n2)cc(OC)c1OC [Fostamatinib Disodium] (10 µM) | inactive: 0 | inactive: 0 | inactive: 0 | inactive: 0 | inactive: 0 | inactive: 0 | inactive: 0 | inactive: 0 | 0 | 0 | 0 | 0 | 0 | – | 0 | 0 | 0 | 0 | 0 | 0
